T/C and survivor count data for nine compounds are collected here from PubChem BioAssay AID248 (DTP/NCI, 2004).

Each structure is given as a SMILES string. The list shows only some results of the screen, not a fair sample: it is rich in T/C values a quarter to a half above the control, in often repeated tests (any T/C) and in doses without a T/C. Other doses and runs of a compound stand elsewhere. T/C gives the treated animals as a percentage of the vehicle group. Some doses have a count of surviving animals in place of a T/C: the source holds a T/C of zero for them, seemingly a mark for toxic or unscored doses. Some doses without a T/C left all or most animals alive at the check, yet need not have been tolerated: survival well below the control is almost never listed, so the zero probably covers shortened survival too. Survivors were counted at the toxicity check, usually on the fifth day, unless a day is given; later deaths do not show. Schedules are NCI's codes, taken here to give the interval after Q, in days (D) or hours (H), and the number of doses after X. Some entries were tested several times; the results are listed from low to high. Some schedule codes hold Z or #, which are not explained here. Where survival is the endpoint, this PubChem deposit counts one and a half times the control or more as active, and values a quarter to a half above the control carry no call in these data; other NCI protocols may use other cut-offs.

This assay concerns L1210 leukemia ip in BDF1 mice, survival T/C. Briefly: NCI In Vivo Anticancer Drug Screen. Data for tumor model L1210 Leukemia (intraperitoneal) in B6D2F1 (BDF1) mice. Conditions: T/C endpoint: mean survival time, higher T/C = longer survival.
The mark [1] stands for this setting: dose: 400.0 mg/kg/injection, schedule: Q04DX003 (ip), vehicle: Klucel (hydroxypropylcellulose) (HPC).
Setting [2] is: dose: 400.0 mg/kg/injection, schedule: Q01DX001 (ip), vehicle: carboxymethylcellulose (CMC).
Where [3] appears, read: dose: 200.0 mg/kg/injection, schedule: Q04DX003 (ip), vehicle: Klucel (hydroxypropylcellulose) (HPC).

Regarding `NNc1ncnc2c(C3OC(CO)C(O)C3O)[nH]nc12` (stereo not given), the T/C by setting is: (dose: 75.0 mg/kg/injection, schedule: Q01DX009 (ip), vehicle: saline) 146 % of control; (dose: 100.0 mg/kg/injection, schedule: Q01DX005 (ip), vehicle: Klucel (hydroxypropylcellulose) (HPC)) 147 % of control; (dose: 100.0 mg/kg/injection, schedule: Q01DX005 (ip), vehicle: saline) 127, 130, 146 % of control; (dose: 100.0 mg/kg/injection, schedule: Q01DX009 (ip), vehicle: water) 130 % of control; (dose: 150.0 mg/kg/injection, schedule: Q01DX009 (ip), vehicle: water) 127 % of control; (dose: 200.0 mg/kg/injection, schedule: Q01DX005 (ip), vehicle: saline) 130 and 147 % of control. Also, the T/C (dose: 200.0 mg/kg/injection, schedule: Q01DX009 (ip), vehicle: Klucel (hydroxypropylcellulose) (HPC)) was 133 % of control. The survivor count is 1 of 6 (dose: 300.0 mg/kg/injection, schedule: Q01DX005 (ip), vehicle: saline); 5 of 6 (dose: 300.0 mg/kg/injection, schedule: Q01DX009 (ip), vehicle: Klucel (hydroxypropylcellulose) (HPC)); 2 of 10 (dose: 300.0 mg/kg/injection, schedule: Q01DX009 (ip), vehicle: saline); 5 of 10 (dose: 400.0 mg/kg/injection, schedule: Q04DX003 (ip), vehicle: saline); 2 of 10 (dose: 400.0 mg/kg/injection, schedule: Q08DX002 (ip), vehicle: saline).
As to `Cc1cc(=O)[nH]c(N/N=C/C(C)C)n1`, the survivor count under setting [1] is reported as 2 of 6.
For the compound `COC1=C(N)C(=O)c2nc(-c3nc(C(=O)O)c(C)c(-c4ccc(OC)c(OC)c4O)c3N)ccc2C1=O`, the survivor count is on record as 6 of 6 (dose: 0.1 mg/kg/injection, schedule: Q01DX009 (ip), vehicle: other); 6 of 6 (dose: 0.4 mg/kg/injection, schedule: Q01DX009 (ip), vehicle: other); 2 of 3 (dose: 0.4 mg/kg/injection, schedule: Q04DX002 (ip), vehicle: saline); 5 of 6 (dose: 0.75 mg/kg/injection, schedule: Q01DX015 (ip), vehicle: water); 6 of 6 (dose: 0.8 mg/kg/injection, schedule: Q01DX009 (ip), vehicle: other); 4 of 4 (dose: 1.0 mg/kg/injection, schedule: Q01DX001 (ip), vehicle: carboxymethylcellulose (CMC)). In addition, the survivor count is, setting by setting: (dose: 1.0 mg/kg/injection, schedule: Q01DX009 (ip), vehicle: saline) 4 of 6 and 5 of 6; (dose: 1.0 mg/kg/injection, schedule: Q01DX015 (ip), vehicle: water) 6 of 6; (dose: 1.56 mg/kg/injection, schedule: Q04DX002 (ip), vehicle: saline) 3 of 3; (dose: 1.6 mg/kg/injection, schedule: Q01DX Z (ip), vehicle: alkali diluted with CMC) 4 of 6 and 6 of 6; (dose: 2.0 mg/kg/injection, schedule: Q01DX009 (ip), vehicle: saline) 0 of 6; (dose: 3.0 mg/kg/injection, schedule: Q01DX001 (ip), vehicle: saline) 0 of 6. For the same compound, the survivor count is 1 of 3 (dose: 3.13 mg/kg/injection, schedule: Q04DX002 (ip), vehicle: saline); 1 of 4 (dose: 4.0 mg/kg/injection, schedule: Q01DX001 (ip), vehicle: carboxymethylcellulose (CMC)); 0 of 4 (dose: 5.0 mg/kg/injection, schedule: Q01DX001 (ip), vehicle: carboxymethylcellulose (CMC)); 0 of 6 (dose: 6.0 mg/kg/injection, schedule: Q01DX001 (ip), vehicle: saline); 0 of 3 (dose: 6.25 mg/kg/injection, schedule: Q04DX002 (ip), vehicle: saline); 0 of 4 (dose: 8.0 mg/kg/injection, schedule: Q01DX001 (ip), vehicle: carboxymethylcellulose (CMC)). The survivor count runs as follows: (dose: 10.0 mg/kg/injection, schedule: Q01DX001 (ip), vehicle: carboxymethylcellulose (CMC)) 0 of 4; (dose: 12.0 mg/kg/injection, schedule: Q01DX001 (ip), vehicle: saline) 0 of 6; (dose: 12.5 mg/kg/injection, schedule: Q04DX002 (ip), vehicle: saline) 3 of 3; (dose: 20.0 mg/kg/injection, schedule: Q01DX001 (ip), vehicle: carboxymethylcellulose (CMC)) 0 of 4; (dose: 20.0 mg/kg/injection, schedule: Q01DX001 (oral), vehicle: water) 3 of 4; (dose: 24.0 mg/kg/injection, schedule: Q01DX001 (ip), vehicle: saline) 0 of 6. In addition, the survivor count was 1 of 3 (dose: 25.0 mg/kg/injection, schedule: Q04DX002 (ip), vehicle: saline); 0 of 4 (dose: 40.0 mg/kg/injection, schedule: Q01DX001 (ip), vehicle: carboxymethylcellulose (CMC)); 0 of 3 (dose: 50.0 mg/kg/injection, schedule: Q04DX002 (ip), vehicle: saline); 0 of 4 (dose: 80.0 mg/kg/injection, schedule: Q01DX001 (ip), vehicle: carboxymethylcellulose (CMC)); 0 of 4 (dose: 100.0 mg/kg/injection, schedule: Q01DX001 (ip), vehicle: carboxymethylcellulose (CMC)); 0 of 3 (dose: 100.0 mg/kg/injection, schedule: Q04DX002 (ip), vehicle: saline). The survivor count reads like this: (dose: 200.0 mg/kg/injection, schedule: Q01DX001 (ip), vehicle: carboxymethylcellulose (CMC)) 0 of 4; (dose: 200.0 mg/kg/injection, schedule: Q04DX002 (ip), vehicle: saline) 0 of 3; under setting [2], 0 of 4; (dose: 400.0 mg/kg/injection, schedule: Q04DX002 (ip), vehicle: saline) 0 of 3. The T/C is, setting by setting: (dose: 0.2 mg/kg/injection, schedule: Q01DX Z (ip), vehicle: saline) 128 % of control; (dose: 0.2 mg/kg/injection, schedule: Q04DX002 (ip), vehicle: saline) 130 % of control; (dose: 0.3 mg/kg/injection, schedule: Q01DX Z (ip), vehicle: saline) 130 % of control; (dose: 0.37 mg/kg/injection, schedule: Q01DX001 (ip), vehicle: other) 125 % of control.
Consider `O=C(NC1CCCCC1)c1csnn1`, for which the survivor count (dose: 300.0 mg/kg/injection, schedule: Q01DX001 (ip), vehicle: other) is 3 of 6.
For `Cc1ccc(C(=O)C=Nc2ccc(C(=O)O)cc2)cc1`, the survivor count under setting [1] is 6 of 6.
As for `CCC(CC)(C(=O)O)C(=O)O`, the survivor count under setting [3] is 6 of 6 and the survivor count under setting [1] is 2 of 6.
As for `CCN(CCCl)Cc1ccc(-c2c3ccccc3cc3c2ccc2ccccc23)cc1`, the survivor count reads like this: (dose: 266.0 mg/kg/injection, schedule: Q01DX001 (ip), vehicle: carboxymethylcellulose (CMC)) 2 of 6; under setting [2], 3 of 6; (dose: 600.0 mg/kg/injection, schedule: Q01DX001 (ip), vehicle: carboxymethylcellulose (CMC)) 1 of 6.
As to `NC1CCCCC1.[O]=[Cr](=[O])([OH])[OH]`, the survivor count by setting is: (dose: 50.0 mg/kg/injection, schedule: Q01DX009 (ip), vehicle: saline sonified) 3 of 6; (dose: 100.0 mg/kg/injection, schedule: Q04DX003 (ip), vehicle: Klucel (hydroxypropylcellulose) (HPC)) 4 of 6; (dose: 150.0 mg/kg/injection, schedule: Q01DX001 (ip), vehicle: saline) 0 of 6; under setting [3], 0 of 6; (dose: 300.0 mg/kg/injection, schedule: Q01DX001 (ip), vehicle: saline) 0 of 6.
As to `NC(=O)COc1ccc(Cl)cc1Cl`, the survivor count (dose: 400.0 mg/kg/injection, schedule: Q01DX009 (ip), vehicle: Klucel (hydroxypropylcellulose) (HPC)) is listed as 0 of 3 and the survivor count (dose: 400.0 mg/kg/injection, schedule: Q04DX002 (ip), vehicle: Klucel (hydroxypropylcellulose) (HPC)) is 1 of 3.
